Data reported in patent US20050124794A1 (published 2005).

Columns and labels:
[1] = molecular target: T1, Rabbit histidine-proline rich glycoprotein (HPRG) (rabbit, UniProt Q28640 9-526, biotinylated in FIG. 15A); assay: biotinylated HPRG on plate coated with chicken gizzard Tpm (FIG. 15A); whole rabbit HPRG
T1 construct: also called rabbit HPRG; biotinylated HPRG
T1 sequence: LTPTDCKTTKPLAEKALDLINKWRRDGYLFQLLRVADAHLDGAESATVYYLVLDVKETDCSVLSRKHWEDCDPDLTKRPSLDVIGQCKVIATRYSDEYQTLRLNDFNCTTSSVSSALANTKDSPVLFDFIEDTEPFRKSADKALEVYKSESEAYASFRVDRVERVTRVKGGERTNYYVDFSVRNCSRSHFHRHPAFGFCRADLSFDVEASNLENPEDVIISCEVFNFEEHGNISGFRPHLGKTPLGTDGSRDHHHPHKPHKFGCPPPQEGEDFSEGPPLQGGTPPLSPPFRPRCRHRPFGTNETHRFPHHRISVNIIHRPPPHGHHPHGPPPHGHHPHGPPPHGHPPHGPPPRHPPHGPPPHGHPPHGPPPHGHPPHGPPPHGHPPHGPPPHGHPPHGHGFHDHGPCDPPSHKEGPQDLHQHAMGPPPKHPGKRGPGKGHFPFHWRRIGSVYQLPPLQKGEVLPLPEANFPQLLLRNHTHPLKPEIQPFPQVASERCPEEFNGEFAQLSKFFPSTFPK
Method: (§1) FIG. 15A: increasing amounts of a biotinylated HPRG, HKa or HKa-D5 were added to a 96 well Tpm-coated plate. FIG. 15B: 10 nM biotin-HKa was added to a 96 well Tpm-coated plate. Increasing amounts of HPRG-H/P domain or HPRG-N/C fragment were added to the wells.
(§2) Binding to immobilized Tpm is carried out either by a competition assay with a known ligand, biotin-HKa, or by direct binding of the corresponding biotinylated protein. Plates are coated at room temperature with chicken gizzard Tpm (Sigma) in Tris buffer-saline (TBS) (200 ng/well). After incubation for 2 hours, wells are washed with TBS, then 1% BSA/TBS/Tween-20 is added to each well and incubate at 37° C. for two hours. HKa (Enzyme Laboratories) that had been previously biotinylated with EZ-Link (Pierce) according to the manufacturers instructions, is added to the plate at a concentration of 10 nM together with ZnCl₂ (10 μM) and the appropriate concentration of the protein, domain or peptide competitor. The plates are incubated at room temperature and then washed with TBS/Tween-20. Avidin-HRP is added, incubated for 20 minutes at room temperature, washed with TBS/Tween-20 and the chromogenic substrate is added. The reaction is stopped with sulfuric acid and the plate read at 490 nm.

[2] = molecular target: T2, Two-chain high molecular weight kininogen (HKa) (human, UniProt P01042 19-380; P01042 390-644, biotin-labelled (NHS (sulfo)-LC-biotin / EZ-Link) in the binding and competition assays); assay: plate binding assay on immobilized chicken gizzard Tpm (FIG. 15); FIG. 15 plate assay, later example
T2 construct: Bought from Enzyme Research Laboratories; The cleavage that makes the two-chain form is not described; also called two chain human kininogen; biotin-HKa
T2 sequence 1: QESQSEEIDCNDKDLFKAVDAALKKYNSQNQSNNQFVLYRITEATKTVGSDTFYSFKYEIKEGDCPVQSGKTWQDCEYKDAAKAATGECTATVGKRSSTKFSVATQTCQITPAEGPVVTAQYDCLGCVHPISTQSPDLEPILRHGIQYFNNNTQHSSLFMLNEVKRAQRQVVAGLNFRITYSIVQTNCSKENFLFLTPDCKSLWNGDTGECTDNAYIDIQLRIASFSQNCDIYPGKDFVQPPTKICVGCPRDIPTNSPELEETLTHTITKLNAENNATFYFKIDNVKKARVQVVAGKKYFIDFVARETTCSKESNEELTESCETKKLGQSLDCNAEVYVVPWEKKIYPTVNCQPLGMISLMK
T2 sequence 2: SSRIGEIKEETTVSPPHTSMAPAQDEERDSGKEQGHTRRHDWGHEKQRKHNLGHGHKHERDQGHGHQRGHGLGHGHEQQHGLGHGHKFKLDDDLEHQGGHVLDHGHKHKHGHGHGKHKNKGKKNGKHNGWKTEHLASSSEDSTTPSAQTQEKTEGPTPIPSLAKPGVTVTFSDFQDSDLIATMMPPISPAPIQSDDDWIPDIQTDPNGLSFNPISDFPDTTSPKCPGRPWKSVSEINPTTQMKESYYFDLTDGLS
Method: as §1, §2
(§3) This value is identical to that obtain in vivo with HUVECs.

[3] = molecular target: T3, Recombinant HKa domain 5 (HKa D5) (human, UniProt P01042 402-526); assay: as above
T3 construct: also called HK-D5; D5 domain of HKa
T3 sequence: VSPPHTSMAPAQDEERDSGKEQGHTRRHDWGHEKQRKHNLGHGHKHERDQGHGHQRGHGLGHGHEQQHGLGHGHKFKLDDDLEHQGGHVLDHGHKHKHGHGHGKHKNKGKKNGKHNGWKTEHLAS
Method: as §1, §2, §3

[4] = molecular target: T3, Recombinant HKa domain 5 (HKa D5); assay: calculated from the IC50 of HKa D5 against biotin-HKa on immobilized Tpm: Kd(D5)=IC50/(1+[HKa]/Kd(HKa)); estimated from blocking of HKa binding
Method: (§4) FIGS. 7A-7C show specific binding of HKa to purified immobilized Tpm and its inhibition. […] Plates were incubated with increasing concentrations of biotin-HKa in the absence or presence of 10 μM Zn²⁺. […] The IC₅₀ for this inhibition was about 8.1 nM.

[5] = molecular target: T2, Two-chain high molecular weight …; assay: biotin-HKa on chicken gizzard Tpm immobilized to polystyrene, with and without 10 µM Zn2+ (legend of FIG. 7A); legend of FIG. 7A
Method: as §4
(§5) To measure the binding of HKa to purified Tpm, 96 well microplates were coated with 20 μg/ml of chicken gizzard Tpm (Sigma), or bovine serum albumin (BSA), as a control. Wells were then blocked by incubation with phosphate buffered saline containing 5% nonfat milk, and incubated with increasing concentrations of HKa (0.01-20 nM) for 2 hours. Specifically-bound HKa was quantitated as described for cell binding assays (van Iwaarden et al., supra, and by assessing the ability of a 100-fold molar excess of unlabeled HKa to compete with biotin-HKa for binding.

[6] = molecular target: T4, Histidine-Proline rich (H/P) domain of HPRG (rabbit, UniProt Q28640 321-421, limits assumed); assay: competition with 10 nM biotin-HKa on plate coated with chicken gizzard Tpm (FIG. 15B); H/P domain alone
T4 construct: also called HPRG-H/P; HPRG-H/P domain
T4 sequence: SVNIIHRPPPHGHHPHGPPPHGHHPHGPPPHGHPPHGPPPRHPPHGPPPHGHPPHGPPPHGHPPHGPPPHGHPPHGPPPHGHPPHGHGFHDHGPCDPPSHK
Method: as §1, §2

[7] = molecular target: T3, Recombinant HKa domain 5 (HKa D5); assay: competition ELISA against 10 nM biotin-HKa on immobilized chicken gizzard Tpm, 10 uM ZnCl2; Kd by non-linear regression
[8] = molecular target: T2, Two-chain high molecular weight …; assay: biotin-HKa on chicken gizzard Tpm immobilized in 96-well microplates, Zn2+-dependent; nonlinear regression; Example II
Method: as §5

B1: Chicken gizzard tropomyosin (Tpm), purified (other)
chain: MEAIKKKMQMLKLDKENAIDRAEQAEADKKQAEDRCKQLEEEQQGLQKKLKGTEDEVEKYSESVKEAQEKLEQAEKKATDAEAEVASLNRRIQLVEEELDRAQERLATALQKLEEAEKAADESERGMKVIENRAMKDEEKMELQEMQLKEAKHIAEEADRKYEEVARKLVVLEGELERSEERAEVAESRVRQLEEELRTMDQSLKSLIASEEEYSTKEDKYEEEIKLLGEKLKEAETRAEFAERSVAKLEKTIDDLEESLASAKEENVGIHQVLDQTLLELNNL
notes: Bought from Sigma and coated on 96-well plates; also called purified Tpm; immobilized Tpm
Kd [1]: ~2 nM
Kd [2]: ~1 nM
Kd [3]: ~1 nM
Kd [4]: ~2.1 nM
Kd [5]: ~2.5 nM
Kd [6]: ~2 nM
Kd [7]: 1 nM
Kd [8]: ~2.6 nM
